Reference: PubChem BioAssay AID602196 (INSERM, 2012)
The deposit covers about 23,000 reagents; shown is a part drawn at random. Of all reagents, 455 (2%) were called active. 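Active includes both protection and sensitisation; some change values fall well beyond the stated -50 to +50 range.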 Unmarked entries are inactive. The record does not give: the amount of reagent.

Aim: 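Modifiers of cisplatin sensitivity in A549 cells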
System: human A549 lung cancer cells
Knock-down reagent: siRNA pair against human genes
Duration: 48 h transfection before cisplatin; time from cisplatin to read-out not stated
Conditions: cisplatin at a dose killing half of control-siRNA cells; exact dose and duration not given
Detection: 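Shift in cisplatin death relative to control siRNA, from -50 (all cells die) to +50 (no cells die); siRNAs harmful on their own scored 0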
Reading the numbers: two-siRNA summed score (-2 to +2): higher = both siRNAs protect from cisplatin killing; -2 means both sensitise; mean protection from cisplatin (shift in death) and protection from cisplatin (shift in death), siRNA C and protection from cisplatin (shift in death), siRNA D: higher = protection from cisplatin killing
Call rule: 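Each siRNA scores 0 if harmful alone by LDH or WST-1, otherwise +1 if it reduces and -1 if it increases cisplatin killing; a gene is active when both siRNAs agree (sum +2 or -2)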
Calls: active = both siRNAs shift cisplatin killing the same way; inactive = no consistent shift, or siRNA harmful alone

gene symbol | two-siRNA summed score (-2 to +2) | mean protection from cisplatin (shift in death) (%) | protection from cisplatin (shift in death), siRNA C (%) | protection from cisplatin (shift in death), siRNA D (%)
NEDD4L | 0 | 7.4 | 5.4 | 9.4
LOC201484 | 0 | 16 | 6.7 | 25.4
GZMB | -1 | -5.6 | -20.4 | 9.1
TLCD1 | 0 | 9.8 | 6.9 | 12.7
MTA1 | 0 | -7.9 | -19.6 | 3.9
ITGAE | -1 | -11.1 | -0.3 | -22
LOC390732 | -1 | -15.7 | -8.1 | -23.2
AGO4 | 0 | 15.1 | 27.3 | 3
FAU | 0 | 10.2 | -1.1 | 21.5
LOC388760 | 1 | 12.5 | 24.5 | 0.5
KCNK17 | 0 | 1.4 | -8.6 | 11.3
ZNF586 | 0 | 3.6 | 3.7 | 3.5
LOC388927 | 0 | 15.9 | 26.5 | 5.2
ABHD3 | 1 | 13.1 | 17.6 | 8.5
NKAIN2 | 0 | -4.5 | -3.3 | -5.7
PSMC3IP | -1 | -26.3 | -34.1 | -18.6
IQUB | 0 | -3.9 | -6.8 | -1
CLCA4 | -1 | -22.8 | 1.2 | -46.8
IQCN | 0 | 1.3 | 3.6 | -1
TNFRSF10A | 0 | 6.6 | 7.5 | 5.7
LOC389070 | 0 | 8.2 | 15.1 | 1.4
LOC390378 | 0 | 16.9 | 25.4 | 8.5
LAIR2 | 0 | 1.8 | -2.5 | 6.2
FBXL3 | -1 | -13.5 | -5.6 | -21.3
XDH | 0 | 1.1 | 2.7 | -0.6
OR6B3 | 1 | 4.5 | -6.5 | 15.5
FBXO5 | 0 | -32.1 | -14.5 | -49.8
CHMP4B | 0 | 5.8 | 8.7 | 3
SNX1 | 0 | 8.1 | 9.4 | 6.9
CTNND1 | 0 | -7.9 | -21.3 | 5.5
SLC6A5 | -1 | 6.2 | 38.3 | -26
LOC440291 | -1 | -11.4 | -4.8 | -17.9
GJB7 | 0 | 13.1 | 24.9 | 1.2
LOC200230 | -1 | 4.1 | -11.8 | 20.1
SCARA3 | 0 | -13.2 | 2.1 | -28.5
PPP6C | 0 | -3.1 | 2 | -8.2
BTN1A1 | -1 | -8.4 | -12.9 | -4
CDKN2AIP | 0 | 9.7 | 9.7 | 9.6
COQ8B | 0 | -0.7 | 7.9 | -9.2
ITM2B | -1 | -8.6 | 5.2 | -22.4
PI15 | 0 | -0.7 | 0.3 | -1.7
HBA2 | 0 | 3.1 | -1.9 | 8.1
KDM1B | 0 | 6.9 | 20.3 | -6.5
CD248 | -1 | 6.8 | 35.7 | -22.2
LAMA2 | 0 | -7.6 | -5.4 | -9.8
STC1 | 0 | 9.8 | 7.3 | 12.3
LOC440589 | 0 | -3.4 | -6.3 | -0.5
ISM1 | 0 | 6 | 10.7 | 1.3
LOC390551 | 0 | 3.6 | 15.9 | -8.6
LOC401147 | 0 | -4.7 | 1.6 | -11.1
SH3TC1 | -1 | -4.3 | -16.6 | 7.9
FLJ10359 | 1 | 11.1 | 17.4 | 4.8
SPRTN | 1 | 8.5 | 14.1 | 2.9
GULP1 | 0 | -29.4 | -20.5 | -38.4
LOC136242 | 0 | -4.1 | -0.2 | -7.9
TCEA2 | 0 | 8 | 19.6 | -3.6
KLF1 | 0 | 6.4 | 9 | 3.7

Look-ups from the list.
SNX1, protection from cisplatin (shift in death), siRNA C (%): 9.4
For “two-siRNA summed score (-2 to +2)”, CHMP4B is entered as 0
Result for KLF1 under “two-siRNA summed score (-2 to +2)”: 0
For “mean protection from cisplatin (shift in death) (%)”, ISM1 is entered as 6
SH3TC1, two-siRNA summed score (-2 to +2) = -1
